Values quoted from earlier work, collected in paper PMC9096754 (Scientific Reports, 2022).

Test system: PKN2
Settings: previously determined, cited from earlier work

## CCS(=O)(=O)N1CC(CC#N)(n2cc(-c3ncnc4[nH]ccc34)cn2)C1 [Baricitinib]
read-out: IC50, PKN2
  IC50: 284 nM
read-out: apparent dissociation constant [Kd app], PKN2
  Kd: 269 nM
